Results deposited as PubChem BioAssay AID1259259 (Sanger Institute, 2017)

Purpose: 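Kinome siRNA search for kinases essential alone or combined with trametinib, cetuximab or BYL719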 (primary screen)
System: SW1463 human colorectal cancer cells
Reagent: siRNA pool against human genes
Treatment: DMSO vehicle, or one anchor drug: BYL719 at 1 µM, cetuximab at 5 µg/ml, or trametinib at 10 nM
Read-out: 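Viability as fraction of control pool 2 (non-targeting), replicate mean; knock-down robust z-score without any drug; synergy score averaged for each anchor drug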
Reading the numbers: robust z-score, knock-down alone: higher = more viable cells after knock-down
Call rule: 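a robust z-score under -3 for knock-down with no drug marks the gene as essential, meaning viability loss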
Meaning of the calls: active = essential: viability loss from knock-down alone; inactive = no change from knock-down alone
This is one part, drawn at random, of 794 reagents. Of all reagents, 9 (1.1%) are marked active. 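Calls rest on knock-down alone, not drug synergy; viability values seem capped at 1.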 Not all columns of the deposit are shown. Not stated in the record: the amount of reagent, the time to read-out.

| Gene | robust z-score, knock-down alone | outcome |
| --- | --- | --- |
| TLK1 (tousled like kinase 1) | -1.55 | inactive |
| MAPK1 (mitogen-activated protein kinase 1) | -0.252 | inactive |
| KALRN (kalirin RhoGEF kinase) | 0.333 | inactive |
| ZC3H11A (zinc finger CCCH-type containing 11A) | 0.361 | inactive |
| MASTL (microtubule associated serine/threonine kinase like) | -0.633 | inactive |
| ACVR1B (activin A receptor type 1B) | 0.535 | inactive |
| PRKCB (protein kinase C beta) | -0.256 | inactive |
| SIK3 (SIK family kinase 3) | 0.783 | inactive |
| ACSL6 (acyl-CoA synthetase long chain family member 6) | 1.05 | inactive |
| CAMK1D (calcium/calmodulin dependent protein kinase ID) | -0.982 | inactive |
| TEX14 (testis expressed 14, intercellular bridge forming factor) | 0.624 | inactive |
| MAPK4 (mitogen-activated protein kinase 4) | 0.28 | inactive |
| PIK3R2 (phosphoinositide-3-kinase regulatory subunit 2) | 0.0841 | inactive |
| MYLK3 (myosin light chain kinase 3) | -0.886 | inactive |
| DLG1 (discs large MAGUK scaffold protein 1) | 0.393 | inactive |
| ROCK1 (Rho associated coiled-coil containing protein kinase 1) | 0.304 | inactive |
| ADK (adenosine kinase) | -1.88 | inactive |
| GALK1 (galactokinase 1) | -2.31 | inactive |
| TSSK2 (testis specific serine kinase 2) | -0.382 | inactive |
| PDGFRA (platelet derived growth factor receptor alpha) | 1.13 | inactive |
| CAMKK2 (calcium/calmodulin dependent protein kinase kinase 2) | 0.555 | inactive |
| PIK3CA | 0.898 | inactive |
| ACVR2A (activin A receptor type 2A) | 0.391 | inactive |
| MAST1 (microtubule associated serine/threonine kinase 1) | 0.109 | inactive |
| GATA3 (GATA binding protein 3) | 0.961 | inactive |
| PRKCZ (protein kinase C zeta) | -0.371 | inactive |
| MAST2 (microtubule associated serine/threonine kinase 2) | 0.222 | inactive |
| KDR (kinase insert domain receptor) | 0.0422 | inactive |
| PRKCQ (protein kinase C theta) | -2.04 | inactive |
| PI4K2A (phosphatidylinositol 4-kinase type 2 alpha) | 0.645 | inactive |
| KRAS (KRas proto-oncogene, GTPase) | -1.75 | inactive |
| NME4 (NME/NM23 nucleoside diphosphate kinase 4) | -0.0552 | inactive |
| TAOK3 (TAO kinase 3) | -0.136 | inactive |
| DNMT3A (DNA methyltransferase 3 alpha) | -0.258 | inactive |
| ACVR1 (activin A receptor type 1) | -0.0627 | inactive |
| PRKAR1B (protein kinase cAMP-dependent type I regulatory subunit beta) | 0.0262 | inactive |
| ULK1 (unc-51 like autophagy activating kinase 1) | -0.361 | inactive |
| N4BP2 (NEDD4 binding protein 2) | 0.501 | inactive |
| RBKS (ribokinase) | 0.645 | inactive |
| PNKP (polynucleotide kinase 3'-phosphatase) | 0.378 | inactive |
| MINK1 (misshapen like kinase 1) | 0.962 | inactive |
| TAOK2 (TAO kinase 2) | 0.444 | inactive |
| EPHA4 (EPH receptor A4) | 1.13 | inactive |
| CDKL5 (cyclin dependent kinase like 5) | -0.329 | inactive |
| BTK (Bruton tyrosine kinase) | -0.251 | inactive |
| PIK3R3 (phosphoinositide-3-kinase regulatory subunit 3) | 0.163 | inactive |
| MAPKAPK3 (MAPK activated protein kinase 3) | -1.24 | inactive |
| CDC42BPB (CDC42 binding protein kinase beta) | -0.899 | inactive |
| FGFR3 (fibroblast growth factor receptor 3) | -1.44 | inactive |
| DCK (deoxycytidine kinase) | -1.19 | inactive |
| PIK3CG | -0.664 | inactive |
| RPS6KA3 (ribosomal protein S6 kinase A3) | -1.13 | inactive |
| TSSK3 (testis specific serine kinase 3) | -0.422 | inactive |
| MAP2K3 (mitogen-activated protein kinase kinase 3) | 0.19 | inactive |
| RPS6KA1 (ribosomal protein S6 kinase A1) | -0.352 | inactive |
| TGFBR1 (transforming growth factor beta receptor 1) | 1.13 | inactive |
| MPP1 (MAGUK p55 scaffold protein 1) | 0.857 | inactive |
| ADCK1 (aarF domain containing kinase 1) | -0.382 | inactive |
| STKLD1 (serine/threonine kinase like domain containing 1) | -1.19 | inactive |
| NME1 (NME/NM23 nucleoside diphosphate kinase 1) | 0.465 | inactive |
| IRAK4 (interleukin 1 receptor associated kinase 4) | 1.13 | inactive |
| RIOK1 (RIO kinase 1) | 1.13 | inactive |
| STK38 (serine/threonine kinase 38) | -0.076 | inactive |

Copied from the list:
Entry for MAP2K3 (mitogen-activated protein kinase kinase 3) under “outcome”: inactive
Result for STK38 (serine/threonine kinase 38) in “outcome”: inactive
For “robust z-score, knock-down alone”, MAST2 (microtubule associated serine/threonine kinase 2) has 0.222
ACSL6 (acyl-CoA synthetase long chain family member 6), robust z-score, knock-down alone → 1.05
